Test results reported in PubChem BioAssay AID1439 (NMMLSC, 2008).
Hit rate of the full screen: of about 220,000 compounds, about 770 (0.35%) were called active. Inconclusive means that the source gave no clear call. Such entries were picked first, then a sample of the others. Rule as the data show it: active = binding response below about 49% or above about 150%; inconclusive = no clear call, values can overlap the other calls; inactive = in between.

Amino acid sequences for entries named in this document (tags omitted).
UniProt P09471, whole entry, looked up: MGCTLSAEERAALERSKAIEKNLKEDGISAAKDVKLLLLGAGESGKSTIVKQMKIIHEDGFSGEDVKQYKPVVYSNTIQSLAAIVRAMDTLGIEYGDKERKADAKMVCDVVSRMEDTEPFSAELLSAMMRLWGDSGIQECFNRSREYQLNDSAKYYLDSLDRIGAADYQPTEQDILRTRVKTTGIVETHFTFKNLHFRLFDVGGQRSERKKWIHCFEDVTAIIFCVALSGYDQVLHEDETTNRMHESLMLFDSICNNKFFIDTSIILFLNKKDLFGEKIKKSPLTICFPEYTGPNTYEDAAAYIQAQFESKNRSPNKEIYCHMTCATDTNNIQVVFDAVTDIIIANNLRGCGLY

What follows are molecules tested against Guanine nucleotide-binding protein G(o) subunit alpha (Homo sapiens) (UniProt P09471) (assay: RGS7-Galphao binding modulators, primary screen, biochemical, multiplexed bead flow cytometry (AID 1439;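 also: fluorescent Galphao held in activated GDP-AlF4 state binding bead-coupled RGS7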)). Conditions: at 10 µM, actives lie on both sides.

SMILES	binding response (% of control)
CCOC(=O)c1c(NC(=O)NC(C)(C)C)sc2c1CCN(C)C2	inconclusive: 95.9%
CC(C)CCNC(=O)NC(=O)COC(=O)c1cc(S(=O)(=O)N2CCOCC2)ccc1N1CCCCC1	active: 12.6%
CN1CC(c2ccccc2)C(c2ccc(Cl)cc2)=N1 (configuration not stated)	inactive: 92.1%
COC(=O)CCNCCSc1nnc(-c2ccco2)n1Cc1ccccc1	inconclusive: 77.8%
N#CC(=NCc1cccnc1)C1=C(O)c2ccccc2C1=O	inconclusive: 9.59%
O=c1c2c(nc3nc(NCc4ccccc4Cl)[nH]n13)CCC2	inactive: 103%
CCCCC(Sc1nc(N)c(NC(=O)c2ccc(OCC)cc2)c(=O)[nH]1)C(=O)O (configuration not stated)	inconclusive: 101%
CCS(=O)(=O)c1nc(S(=O)(=O)c2ccc(Cl)cc2)c(NCCOC)s1	inactive: 103%
O=C(CSc1n[nH]c(=O)[nH]c1=O)c1ccccc1[N+](=O)[O-]	inconclusive: 75%
COc1ccccc1CC(=O)Nc1cccc(C)n1	inactive: 96.7%
COc1ccc(CN2C(=O)c3ccccc3C2=O)cc1C(=O)Nc1ccccc1N1CCOCC1	inconclusive: 92.4%
Cc1cc(C(=O)CCC(=O)N2CCN(c3ccccc3F)CC2)c(C)s1	inconclusive: 104%
COc1ccc([N+](=O)[O-])cc1C1NN=C(c2ccccc2O)S1 (configuration not stated)	inactive: 98.6%
COc1ccc(C(=O)OCC(=O)N2C(C)CCCC2C)cc1[N+](=O)[O-] (configuration not stated)	inconclusive: 95.5%
COc1cc(OC)cc(C(=O)NNC(=S)NC2CC2)c1	inactive: 109%
COc1cc(/C(C)=N\NC(=O)CSc2nc3ccccc3n2C)ccc1O	inconclusive: 107%
Cc1cc(NC(=O)CC#N)n(-c2nc3ccccc3[nH]2)n1	inconclusive: -138%
O=c1nc(N2CCOCC2)ccn1-c1nc(-c2ccccc2)sc1-c1ccccc1	inconclusive: 56.8%
CN(C)S(=O)(=O)c1ccc(C(=O)OCc2nnc(-c3ccccc3)o2)cc1	inconclusive: 139%
N#C/C(=C\c1c(N2CCCCCC2)nc2ccccn2c1=O)C(=O)NCc1ccco1	inconclusive: 66.5%
S=c1[nH]c2cc3c(cc2[nH]1)OCCO3	inconclusive: 104%
O=C(/C=C/c1ccc(F)cc1)NC(=S)N1CCN(Cc2ccccc2)CC1	inconclusive: 95.5%
CN(C)/C=C1\SC(=S)N(c2ccc(F)cc2)C1=O	inconclusive: 143%
O=c1cc(CN2CCN(c3cccc(C(F)(F)F)c3)CC2)nc2sccn12	inconclusive: 138%

Retrieved by structure from above (2):
SMILES	binding response (% of control)
N#C/C(=C\c1c(N2CCCCCC2)nc2ccccn2c1=O)C(=O)NCc1ccco1	inconclusive: 66.5%
COc1cc(/C(C)=N\NC(=O)CSc2nc3ccccc3n2C)ccc1O	inconclusive: 107%

Next part:

SMILES	binding response (% of control)
c1ccc(-c2csc(-c3ccc(-c4csnn4)cc3)n2)cc1	inconclusive: -226%
O=C(Oc1coc(CSc2ncccn2)cc1=O)c1ccco1	inconclusive: 95.9%
c1ccc(-c2ncc(-c3ccn[nH]3)s2)cc1	inactive: 104%
CCOc1ccccc1C(=O)NC(CO)C(=O)O (configuration not stated)	inactive: 102%
Cc1cc(Cl)ccc1OCc1cn2cccnc2n1	inactive: 99.1%
O=C(CSc1nc(-c2ccccc2)cs1)NCCN1C(=O)CSC1=O	inconclusive: 121%
CCN(CC)S(=O)(=O)c1ccc(N2CCOCC2)c(NC(=O)Cc2cccc3ccccc23)c1	inactive: 102%
CSc1sc(-c2n[nH]c(=S)n2C)c2c1C=CCC2	inconclusive: 350%
CC(C)n1cnc2c(N(C)c3ccccc3)nc(N(CCN(C)C)Cc3ccccc3)nc21	inconclusive: 75.7%
CC(C)(C)C(=O)N/C(N)=N/c1nc2ccccc2o1	inconclusive: 59.1%
S=c1nc(-c2ccccc2)n(Cc2cccnc2)c2c1CCCC2	inconclusive: 94.2%
Cc1ccccc1-c1ccc(=O)n(CC(=O)Nc2ccc(-n3cnnn3)cc2)n1	inconclusive: 111%
CCC(C)(C)NC(=O)c1ccccc1Oc1ccccc1	inconclusive: 96.5%
COc1cccc(C(=O)Nc2nnc(Cc3ccc(OC)c(OC)c3)s2)c1	inconclusive: 102%
COC(=O)CCCC1=CC2=C(c3ccccc3)C(=O)C(C)(OC(=O)C3CCCC3)C(=O)C2=CN1C(CO)CO (configuration not stated)	inconclusive: 100%
Cc1ccc(Nc2nc(N)nc(CN3CCN(Cc4ccc5c(c4)OCO5)CC3)n2)cc1Cl	active: 45.3%
CC(C)CCSc1nc2ccccc2[nH]1	inconclusive: 88.7%
Nc1ccc(S(=O)(=O)N2CCCC2)cc1Cl	inconclusive: 112%
O=[N+]([O-])c1ccc2oc(C3CCCCC3)nc2c1	inactive: 100%
O=C1/C(=C\c2ccc(O)c(O)c2)C(c2ccccc2)=NN1c1ccccc1	inactive: 55.2%
Cc1cccc(Nc2nnc(SCC(=O)c3ccc(Br)s3)s2)c1C	inactive: 104%
Cc1cc(-c2ccc3ccccc3c2)n2ncnc2n1	inactive: 102%
Cc1cccc(NCC(=O)N/N=C\c2cccn2C)c1	inconclusive: 97.9%
